PubChem BioAssay AID1508588 – Peter MacCallum Cancer Centre, 2020

- Screen: 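Which gene losses make BRAF-mutant melanoma cells more responsive to vemurafenib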 (primary screen)
- System: human WM266.4 melanoma cells (BRAF V600 mutant)
- Knock-down reagent: siRNA pool against human genes, 40 nM
- Time to read-out: 96 h from transfection to read-out
- Treatment: vemurafenib 300 nM (about IC25), added 48 h after transfection, for 48 h; comparison arm got DMSO vehicle only
- Read-out: 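Ratios to non-targeting siRNA for cell gain, counted as DAPI nuclei after minus before drug and averaged over two replicates, and for absorbance-read medium lactate per cell; both binned into fold-change classes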
- Reading the numbers: cell gain with vemurafenib: higher = more cell gain than with non-targeting siRNA; lactate per cell with vemurafenib: higher = more lactate made per cell
- Active means: 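Enhancement is called by pairing each knock-down's vehicle-arm and drug-arm fold-change classes for viability or glycolysis; which class combinations qualify is not given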
- Calls: active = enhances vemurafenib effect; inactive = no enhancement seen
The whole screen tested about 18,000 reagents; shown is an unselected part. Over the whole deposit, 790 (4.4%) were called active. 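Calls rest on a combination of fold-change classes in drug and vehicle arms, not all shown here.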 A number with no mark means an inactive call. Reagent sequences are not shown.

GPC3 showed cell gain with vemurafenib 0.55; lactate per cell with vemurafenib 0.6.
Against MIP the deposit lists cell gain with vemurafenib 1.28; lactate per cell with vemurafenib 0.32.
After knock-down of SACM1L, the record shows cell gain with vemurafenib 0.77; lactate per cell with vemurafenib 0.84.
HSF2BP showed cell gain with vemurafenib 0.25; lactate per cell with vemurafenib 1.21.
Silencing of NTN3 resulted in: cell gain with vemurafenib 0.07; lactate per cell with vemurafenib 2.
Against ARAP2 the deposit lists cell gain with vemurafenib 0.68; lactate per cell with vemurafenib 0.95.
With knock-down of TUBGCP3 the results were cell gain with vemurafenib 0.41; lactate per cell with vemurafenib 0.46.
For CPE, the entry reads cell gain with vemurafenib 0.97; lactate per cell with vemurafenib 0.82.
Against AGPAT5, the entry reads cell gain with vemurafenib 0.43; lactate per cell with vemurafenib 0.92.
PRPF38B scored cell gain with vemurafenib 0.5; lactate per cell with vemurafenib 1.42.
ZNF155 gave cell gain with vemurafenib 0.61; lactate per cell with vemurafenib 0.68.
After knock-down of ZBTB21, the screen gave cell gain with vemurafenib 0.54; lactate per cell with vemurafenib 2.12.
Knock-down of GOSR1 gave: cell gain with vemurafenib 0.63 (active); lactate per cell with vemurafenib 0.61.
SAXO1 scored cell gain with vemurafenib 1.12; lactate per cell with vemurafenib 1.04.
With knock-down of ZNF184, the record shows cell gain with vemurafenib 0.55; lactate per cell with vemurafenib 0.58.
Depletion of POLD3 came out at: cell gain with vemurafenib 0.34; lactate per cell with vemurafenib 0.64.
For GYPA the deposit lists cell gain with vemurafenib 0.95; lactate per cell with vemurafenib 0.55.
After knock-down of HOXB3, the screen gave cell gain with vemurafenib 0.68; lactate per cell with vemurafenib 1.44.
Knock-down of WLS gave: cell gain with vemurafenib 0.92; lactate per cell with vemurafenib 0.84.
RPL17 scored cell gain with vemurafenib 0.03; lactate per cell with vemurafenib 1.08.
For VAC14, the entry reads cell gain with vemurafenib 0.57; lactate per cell with vemurafenib 1.32.
After knock-down of C1D, the record shows cell gain with vemurafenib 0.3; lactate per cell with vemurafenib 0.97.
Depletion of GAL3ST3 gave: cell gain with vemurafenib 0.56; lactate per cell with vemurafenib 1.27.
Against TAS2R10, the values are cell gain with vemurafenib 0.34; lactate per cell with vemurafenib 1.07.
CALHM4 gave cell gain with vemurafenib 0.7; lactate per cell with vemurafenib 0.77.
For ADAM28, the values are cell gain with vemurafenib 0.96; lactate per cell with vemurafenib 0.6.
Depletion of PPP1R17 resulted in: cell gain with vemurafenib 0.23; lactate per cell with vemurafenib 0.78.
LRP2 scored cell gain with vemurafenib 0.81; lactate per cell with vemurafenib 0.88.
Knock-down of EBI3 gave: cell gain with vemurafenib 0.25; lactate per cell with vemurafenib 1.38.
MAGT1 showed cell gain with vemurafenib 0.69; lactate per cell with vemurafenib 1.16.
With knock-down of GABRP, the record shows cell gain with vemurafenib 0.57; lactate per cell with vemurafenib 1.62.
With knock-down of RANBP10, the record shows cell gain with vemurafenib 0.31; lactate per cell with vemurafenib 0.82.
After knock-down of CEBPE the results were cell gain with vemurafenib 0.59; lactate per cell with vemurafenib 1.02.
With knock-down of TEX56P the results were cell gain with vemurafenib 0.4; lactate per cell with vemurafenib 0.66.
With knock-down of XG, the record shows cell gain with vemurafenib 0.75; lactate per cell with vemurafenib 1.18.
For ZNF223 the deposit lists cell gain with vemurafenib 0.04; lactate per cell with vemurafenib 1.31.
Silencing of KPNA4 gave: cell gain with vemurafenib 0.68; lactate per cell with vemurafenib 1.05.
For NLK the deposit lists cell gain with vemurafenib 0.03; lactate per cell with vemurafenib 0.81.
NEDD9 gave cell gain with vemurafenib 0.71; lactate per cell with vemurafenib 1.29.
With knock-down of GPR12, the record shows cell gain with vemurafenib 0.52; lactate per cell with vemurafenib 1.17.

In a second layout: results already given
NLK
- cell gain with vemurafenib: 0.03
- lactate per cell with vemurafenib: 0.81

NEDD9
- cell gain with vemurafenib: 0.71
- lactate per cell with vemurafenib: 1.29
